This is one part of the list. The main result of the screen is listed elsewhere. These columns were measured beside it and carry no call. The list favours compounds with an active or inconclusive main result. Potencies come from curve fits of mixed quality, noted in brackets.

These results are taken from PubChem BioAssay AID1487 (National Center for Advancing Translational Sciences (NCATS), 2009).

This test in a line: qHTS Assay for Modulators of Lamin A Splicing. To be noted: HeLa LMNA splicing GFP/RFP minigene ratio, 48 h. In outline: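 Read-out is the ratio of GFP to DsRed2 object intensity, acquired by 488 nm laser-scanning cytometry on HeLa lamin A-EGFP minigene reporter cells. Compound incubation 48 hrs at 37 °C in Opti-MEM with 2% FBS; DMSO 0.5% final.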
Background: Quantitative high-throughput screening tests each substance at several concentrations.

Where [1] appears, read: measured here: RFP viability control channel.
[2] abbreviates: measured here: GFP splicing reporter channel.

For `CCC(C)(C)C(=O)Nc1ncc(S(=O)(=O)c2ccc([N+](=O)[O-])cc2)s1`, under setting [1], the AC50 (as a rule, the midpoint of the concentration-response curve, whichever way the signal moves) was 15.8 µM [rising, single point].

Take `COc1ccc(C)cc1NC(=O)CNC(=O)Cn1ccc2ccccc2c1=O`: under setting [1], the AC50 is 0.00562 µM [rising, full curve, poor fit].

Regarding `Cn1c(SCC(N)=O)nc2c([nH]c3ccccc32)c1=O`, the AC50 under setting [2] was 0.891 µM [falling, full curve, poor fit].

On to `Clc1ccc(-n2ncc3c(NCc4ccccn4)ncnc32)cc1`, for which the AC50 under setting [1] was 35.5 µM [rising, single point].

As for `COc1cccc(NC(=O)c2ccc(C(=O)c3ccccc3)o2)c1`, the AC50 under setting [2] was 35.5 µM [falling, single point].

Consider `COc1ccc(CNC(=O)COc2ccc(C(=O)c3ccc(F)cc3)cc2)cc1`, for which the AC50 under setting [1] is 5.62 µM [rising, single point].

On to `O=C(c1n[nH]c(=O)c2ccccc12)N1CCN(c2ccccc2Cl)CC1`, for which the AC50 was 14.1 µM [rising, single point] under setting [2] and 17.8 µM [rising, single point] under setting [1].

Consider `Cc1ccccc1OCc1nc2ccccc2c(=O)n1/N=C/c1c[nH]c2ccccc12`, for which the AC50 is, setting by setting: under setting [2], 35.5 µM [falling, single point]; under setting [1], 35.5 µM [falling, single point].

For the molecule `Cc1cccc(NC(=O)CSc2nc3ccc(NC(=O)COc4ccc(Cl)cc4)cc3s2)c1`, the concentration at half-maximal activity (AC50) under setting [2] is 14.1 µM [falling, single point] and the AC50 under setting [1] is 35.5 µM [falling, single point].

Consider `C=CCNC(=O)C(C#N)c1nc2ccccc2nc1N1CCCCCC1` (stereo not given), for which the AC50 under setting [1] is 11.2 µM [rising, single point].

For the molecule `Cc1cccc(NC(=O)c2cc3c(=O)n(Cc4ccco4)ccc3nc2C)c1`, the AC50 under setting [1] is 11.2 µM [rising, partial curve].

In the case of `Cc1nn(-c2ccccc2)c2c1N(CC(=O)NCc1ccc(N(C)C)cc1)C(=O)CS2`, the AC50 is 0.01 µM [falling, full curve, poor fit] under setting [2] and 0.316 µM [falling, full curve, poor fit] under setting [1].

For the molecule `COC(=O)c1cn(NC(=O)c2ccc(OC)c([N+](=O)[O-])c2)c(=O)c2ccccc12`, the AC50 reads like this: under setting [2], 3.16 µM [falling, full curve, poor fit]; under setting [1], 3.16 µM [falling, partial curve, poor fit].

With `O=C1C2C3C=CC(C3=C3CCCCC3)C2C(=O)N1Cc1ccccc1` (stereo not given), the AC50 under setting [2] is 28.2 µM [rising, single point] and the AC50 under setting [1] is 28.2 µM [rising, single point].

Consider `CN(c1ncnc2c1c(-c1ccccc1)cn2-c1ccc(F)cc1)C1CCCCC1`, for which, under setting [1], the AC50 is 8.91 µM [rising, single point].

As for `Cc1nn(Cc2ccccc2Cl)c2sc(C(=O)OC3CCCC3=O)cc12` (stereo not given), the AC50 is 22.4 µM [rising, single point] under setting [2] and 22.4 µM [rising, single point] under setting [1].

With `CC(C)OC(=O)c1cc(NC(=S)Nc2ccc([N+](=O)[O-])cc2)cc(C(=O)OC(C)C)c1`, the AC50 under setting [2] is 11.2 µM [rising, single point] and the AC50 under setting [1] is 20 µM [rising, single point].

In the case of `O=C(NNc1nc2cc3c(cc2s1)OCO3)c1cccc(F)c1`, the AC50 under setting [1] was 35.5 µM [rising, single point].

For the molecule `Cc1cc(SCC(=O)c2cccs2)n2nc(C)c(-c3ccc(Cl)cc3)c2n1`, the AC50 under setting [1] is 0.0562 µM [rising, full curve].

For the molecule `O=C(O)[C@@H]1[C@@H]2C[C@H]3c4[nH]c5ccccc5c4CCN3C[C@@H]2CC[C@@H]1O`, the AC50 under setting [2] was 0.355 µM [falling, partial curve].

On to `CN(CC(=O)Nc1ccc(F)c(F)c1F)c1cnccn1`, for which the AC50 under setting [1] was 2.24 µM [falling, full curve].

For the molecule `CNc1nc(-c2ccc3c(c2)CCN3S(=O)(=O)c2ccccc2)c(C)s1`, the AC50 is 2 µM [falling, full curve] under setting [2] and 15.8 µM [falling, partial curve] under setting [1].

Take `O=C(NCC12CC3CC(CC(C3)C1)C2)c1nn2c(c1Cl)NC(c1ccco1)CC2C(F)(F)F` (stereo not given): under setting [1], the AC50 was 0.355 µM [falling, partial curve, poor fit].

For `COc1ccc(Cn2ccc3nc(C)c(C(=O)Nc4ccc(F)cc4)cc3c2=O)cc1`, the AC50 is 2.51 µM [rising, partial curve] under setting [2] and 3.16 µM [rising, single point] under setting [1].

For the molecule `CC(C)C(C)NC(=O)COc1ccc([N+](=O)[O-])cc1Cl` (stereo not given), the concentration at half-maximal activity (AC50) under setting [1] is 17.8 µM [rising, single point].

With `Nc1nc(Cl)cc(N2CCC(c3cc(-c4ccc(Cl)cc4)n[nH]3)CC2)n1`, the AC50 was 35.5 µM [falling, single point] under setting [2] and 12.6 µM [falling, partial curve] under setting [1].

Consider `Cc1noc(/C=C/N(C)C)c1S(=O)(=O)N1CCN(c2ccccc2)CC1`, for which the AC50 under setting [1] was 25.1 µM [rising, single point].

Turning to `CCSc1nnc(NC(=O)c2cccc(S(=O)(=O)N(C)c3ccc(C)cc3)c2)s1`, under setting [1], the AC50 was 12.6 µM [rising, partial curve].

Turning to `O=C(NC1CCCC1)C(=O)N(Cc1cccnc1)C(C(=O)NCC1CCCO1)c1ccco1` (stereo not given), the AC50 under setting [2] is 7.08 µM [rising, partial curve, poor fit].

For `O=C(Nc1ccc(Cl)cc1)OCc1cncs1`, the AC50 is 20 µM [rising, partial curve, poor fit] under setting [2] and 22.4 µM [rising, single point] under setting [1].

`COc1ccc(N=Nc2ccc(N)nc2N)cc1`: the AC50 was 20 µM [falling, partial curve, poor fit] under setting [2] and 35.5 µM [falling, partial curve, poor fit] under setting [1].

With `O=C(N/N=C/c1cc2c(cc1Br)OCO2)c1c[nH]c2ccccc12`, under setting [1], the AC50 is 0.126 µM [rising, full curve, poor fit].

For `O=C(O)c1ccccc1Nc1ccccc1`, the AC50 under setting [2] is 0.355 µM [falling, partial curve, poor fit] and the AC50 under setting [1] was 5.62 µM [falling, partial curve, poor fit].

Consider `COc1cccc(/C=N/NC(=O)CC(=O)NCCc2ccccc2)c1OC`, for which the AC50 under setting [2] was 0.501 µM [rising, full curve, poor fit].

Consider `O=C(Nc1cccc(Cl)c1)N1CCN2C(=O)c3ccccc3C12c1ccccc1` (stereo not given), for which the AC50 under setting [1] is 0.0794 µM [falling, full curve, poor fit].

In the case of `O=C(COC(=O)c1ccc2[nH]c3c(c2c1)CCCC3)NC1CCS(=O)(=O)C1` (stereo not given), the AC50 was 7.94 µM [falling, full curve, poor fit] under setting [2] and 3.16 µM [falling, full curve] under setting [1].

Take `COC(=O)N1C(/C=C/c2ccc3c(c2)OCO3)=Cc2ccccc2C1CC(C)=O` (stereo not given): under setting [1], the AC50 was 0.1 µM [falling, full curve].

With `O=C(Nc1ccc(Cl)cc1)c1csc(-c2ccncc2)n1`, the AC50 under setting [1] was 7.94 µM [falling, partial curve, poor fit].

As for `Cc1csc(NC(=O)c2ccc(C)c(S(=O)(=O)N3CCCCC3)c2)n1`, the AC50 under setting [1] was 14.1 µM [rising, single point].

Take `O=C1CCc2cc(S(=O)(=O)NCc3ccc(Cl)cc3)cc3c2N1CC3`: the AC50 under setting [2] is 14.1 µM [falling, partial curve].

For `O=C(c1ccccc1-c1nc(-c2ccc(F)cc2)no1)N1CCCC1`, the AC50 is 11.2 µM [rising, partial curve] under setting [2] and 7.94 µM [rising, partial curve] under setting [1].

For `COc1cc2c(cc1NC(=O)Nc1ccc(C)cc1)oc1ccccc12`, the AC50 by setting is: under setting [2], 35.5 µM [rising, single point]; under setting [1], 35.5 µM [rising, single point].

With `CCOC(=O)c1cnn(CC2CCCCC2)c1N`, the AC50 under setting [2] is 1 µM [rising, partial curve] and the AC50 under setting [1] is 11.2 µM [rising, single point].

In the case of `Cc1ccccc1CNC(=O)c1ccccc1NC(=O)c1nsc2ccccc12`, the AC50 under setting [1] is 8.91 µM [falling, partial curve, poor fit].

With `O=C(Nc1ccc(Cl)c(C(F)(F)F)c1)C1CCCN(S(=O)(=O)c2cccc3cccnc23)C1` (stereo not given), under setting [2], the AC50 is 0.00447 µM [falling, full curve, poor fit].

For the molecule `Cc1ccc(CNC(=O)c2cc3cc(C)ccc3n2C)cc1`, the AC50 under setting [2] was 2.24 µM [falling, full curve].

Take `CC(O)CNc1nc2c(c(=O)n(C)c(=O)n2C)n1CCc1ccccc1` (stereo not given): the AC50 under setting [1] is 35.5 µM [rising, single point].

Take `COc1cccc(Oc2cn[nH]c2-c2ccc(O)cc2O)c1`: under setting [1], the AC50 is 3.16 µM [rising, partial curve].

As to `CCOc1ccc(C2c3[nH]c4ccccc4c3CCN2C(=O)CSc2ccccc2)cc1` (stereo not given), under setting [1], the AC50 is 25.1 µM [rising, single point].

For the molecule `Cc1cc([N+](=O)[O-])nn1CC(=O)Nc1ccc(F)cc1`, the AC50 under setting [2] is 0.178 µM [rising, full curve].

Consider `O=C(Nc1ccc(Cc2ccncc2)cc1)c1cc(F)c(F)cc1Cl`, for which, under setting [2], the half-maximal activity concentration (AC50) is 0.562 µM [rising, full curve].

As for `CCCCn1c(=O)[nH]c(=O)c2c1nc(-c1ccccc1F)n2Cc1ccccc1OC`, the AC50 is 11.2 µM [falling, partial curve, poor fit] under setting [2] and 8.91 µM [falling, partial curve, poor fit] under setting [1].

In the case of `CCc1ccc(S(=O)(=O)NCc2cn3c(C)csc3n2)s1`, the AC50 under setting [1] was 25.1 µM [rising, single point].

In the case of `N/C(=N\OC(=O)CCc1ccccc1)c1cccnc1`, under setting [1], the AC50 was 0.141 µM [falling, full curve].

Turning to `CC(C)CC(=O)Nc1ccc(Nc2ccccc2)cc1`, the AC50 under setting [1] was 22.4 µM [rising, single point].

As for `O=S(=O)(N/N=C\c1ccc(-c2ccccc2Cl)o1)c1ccccc1`, under setting [1], the AC50 is 31.6 µM [rising, single point].
